Earlier results as cited in patent publication US8242165B2, “Mucoadhesive nanoparticles for cancer treatment” (Creighton University, priority 2006, dated 2012).

Details: 1:1 mixture of Cremophor EL and ethanol

- solubility of paclitaxel in formulation: 7 mM
SMILES: CC(=O)O[C@H]1C(=O)[C@@]2(C)[C@H]([C@H](OC(=O)c3ccccc3)[C@]3(O)C[C@H](OC(=O)[C@H](O)[C@@H](NC(=O)c4ccccc4)c4ccccc4)C(C)=C1C3(C)C)[C@]1(OC(C)=O)CO[C@@H]1C[C@@H]2O [paclitaxel, Paclitaxel]
